This is an account of results in article PMC5261017.

By UniProt entry, the sequences of proteins in these tests, tags left out.
UniProt Q8N3K9: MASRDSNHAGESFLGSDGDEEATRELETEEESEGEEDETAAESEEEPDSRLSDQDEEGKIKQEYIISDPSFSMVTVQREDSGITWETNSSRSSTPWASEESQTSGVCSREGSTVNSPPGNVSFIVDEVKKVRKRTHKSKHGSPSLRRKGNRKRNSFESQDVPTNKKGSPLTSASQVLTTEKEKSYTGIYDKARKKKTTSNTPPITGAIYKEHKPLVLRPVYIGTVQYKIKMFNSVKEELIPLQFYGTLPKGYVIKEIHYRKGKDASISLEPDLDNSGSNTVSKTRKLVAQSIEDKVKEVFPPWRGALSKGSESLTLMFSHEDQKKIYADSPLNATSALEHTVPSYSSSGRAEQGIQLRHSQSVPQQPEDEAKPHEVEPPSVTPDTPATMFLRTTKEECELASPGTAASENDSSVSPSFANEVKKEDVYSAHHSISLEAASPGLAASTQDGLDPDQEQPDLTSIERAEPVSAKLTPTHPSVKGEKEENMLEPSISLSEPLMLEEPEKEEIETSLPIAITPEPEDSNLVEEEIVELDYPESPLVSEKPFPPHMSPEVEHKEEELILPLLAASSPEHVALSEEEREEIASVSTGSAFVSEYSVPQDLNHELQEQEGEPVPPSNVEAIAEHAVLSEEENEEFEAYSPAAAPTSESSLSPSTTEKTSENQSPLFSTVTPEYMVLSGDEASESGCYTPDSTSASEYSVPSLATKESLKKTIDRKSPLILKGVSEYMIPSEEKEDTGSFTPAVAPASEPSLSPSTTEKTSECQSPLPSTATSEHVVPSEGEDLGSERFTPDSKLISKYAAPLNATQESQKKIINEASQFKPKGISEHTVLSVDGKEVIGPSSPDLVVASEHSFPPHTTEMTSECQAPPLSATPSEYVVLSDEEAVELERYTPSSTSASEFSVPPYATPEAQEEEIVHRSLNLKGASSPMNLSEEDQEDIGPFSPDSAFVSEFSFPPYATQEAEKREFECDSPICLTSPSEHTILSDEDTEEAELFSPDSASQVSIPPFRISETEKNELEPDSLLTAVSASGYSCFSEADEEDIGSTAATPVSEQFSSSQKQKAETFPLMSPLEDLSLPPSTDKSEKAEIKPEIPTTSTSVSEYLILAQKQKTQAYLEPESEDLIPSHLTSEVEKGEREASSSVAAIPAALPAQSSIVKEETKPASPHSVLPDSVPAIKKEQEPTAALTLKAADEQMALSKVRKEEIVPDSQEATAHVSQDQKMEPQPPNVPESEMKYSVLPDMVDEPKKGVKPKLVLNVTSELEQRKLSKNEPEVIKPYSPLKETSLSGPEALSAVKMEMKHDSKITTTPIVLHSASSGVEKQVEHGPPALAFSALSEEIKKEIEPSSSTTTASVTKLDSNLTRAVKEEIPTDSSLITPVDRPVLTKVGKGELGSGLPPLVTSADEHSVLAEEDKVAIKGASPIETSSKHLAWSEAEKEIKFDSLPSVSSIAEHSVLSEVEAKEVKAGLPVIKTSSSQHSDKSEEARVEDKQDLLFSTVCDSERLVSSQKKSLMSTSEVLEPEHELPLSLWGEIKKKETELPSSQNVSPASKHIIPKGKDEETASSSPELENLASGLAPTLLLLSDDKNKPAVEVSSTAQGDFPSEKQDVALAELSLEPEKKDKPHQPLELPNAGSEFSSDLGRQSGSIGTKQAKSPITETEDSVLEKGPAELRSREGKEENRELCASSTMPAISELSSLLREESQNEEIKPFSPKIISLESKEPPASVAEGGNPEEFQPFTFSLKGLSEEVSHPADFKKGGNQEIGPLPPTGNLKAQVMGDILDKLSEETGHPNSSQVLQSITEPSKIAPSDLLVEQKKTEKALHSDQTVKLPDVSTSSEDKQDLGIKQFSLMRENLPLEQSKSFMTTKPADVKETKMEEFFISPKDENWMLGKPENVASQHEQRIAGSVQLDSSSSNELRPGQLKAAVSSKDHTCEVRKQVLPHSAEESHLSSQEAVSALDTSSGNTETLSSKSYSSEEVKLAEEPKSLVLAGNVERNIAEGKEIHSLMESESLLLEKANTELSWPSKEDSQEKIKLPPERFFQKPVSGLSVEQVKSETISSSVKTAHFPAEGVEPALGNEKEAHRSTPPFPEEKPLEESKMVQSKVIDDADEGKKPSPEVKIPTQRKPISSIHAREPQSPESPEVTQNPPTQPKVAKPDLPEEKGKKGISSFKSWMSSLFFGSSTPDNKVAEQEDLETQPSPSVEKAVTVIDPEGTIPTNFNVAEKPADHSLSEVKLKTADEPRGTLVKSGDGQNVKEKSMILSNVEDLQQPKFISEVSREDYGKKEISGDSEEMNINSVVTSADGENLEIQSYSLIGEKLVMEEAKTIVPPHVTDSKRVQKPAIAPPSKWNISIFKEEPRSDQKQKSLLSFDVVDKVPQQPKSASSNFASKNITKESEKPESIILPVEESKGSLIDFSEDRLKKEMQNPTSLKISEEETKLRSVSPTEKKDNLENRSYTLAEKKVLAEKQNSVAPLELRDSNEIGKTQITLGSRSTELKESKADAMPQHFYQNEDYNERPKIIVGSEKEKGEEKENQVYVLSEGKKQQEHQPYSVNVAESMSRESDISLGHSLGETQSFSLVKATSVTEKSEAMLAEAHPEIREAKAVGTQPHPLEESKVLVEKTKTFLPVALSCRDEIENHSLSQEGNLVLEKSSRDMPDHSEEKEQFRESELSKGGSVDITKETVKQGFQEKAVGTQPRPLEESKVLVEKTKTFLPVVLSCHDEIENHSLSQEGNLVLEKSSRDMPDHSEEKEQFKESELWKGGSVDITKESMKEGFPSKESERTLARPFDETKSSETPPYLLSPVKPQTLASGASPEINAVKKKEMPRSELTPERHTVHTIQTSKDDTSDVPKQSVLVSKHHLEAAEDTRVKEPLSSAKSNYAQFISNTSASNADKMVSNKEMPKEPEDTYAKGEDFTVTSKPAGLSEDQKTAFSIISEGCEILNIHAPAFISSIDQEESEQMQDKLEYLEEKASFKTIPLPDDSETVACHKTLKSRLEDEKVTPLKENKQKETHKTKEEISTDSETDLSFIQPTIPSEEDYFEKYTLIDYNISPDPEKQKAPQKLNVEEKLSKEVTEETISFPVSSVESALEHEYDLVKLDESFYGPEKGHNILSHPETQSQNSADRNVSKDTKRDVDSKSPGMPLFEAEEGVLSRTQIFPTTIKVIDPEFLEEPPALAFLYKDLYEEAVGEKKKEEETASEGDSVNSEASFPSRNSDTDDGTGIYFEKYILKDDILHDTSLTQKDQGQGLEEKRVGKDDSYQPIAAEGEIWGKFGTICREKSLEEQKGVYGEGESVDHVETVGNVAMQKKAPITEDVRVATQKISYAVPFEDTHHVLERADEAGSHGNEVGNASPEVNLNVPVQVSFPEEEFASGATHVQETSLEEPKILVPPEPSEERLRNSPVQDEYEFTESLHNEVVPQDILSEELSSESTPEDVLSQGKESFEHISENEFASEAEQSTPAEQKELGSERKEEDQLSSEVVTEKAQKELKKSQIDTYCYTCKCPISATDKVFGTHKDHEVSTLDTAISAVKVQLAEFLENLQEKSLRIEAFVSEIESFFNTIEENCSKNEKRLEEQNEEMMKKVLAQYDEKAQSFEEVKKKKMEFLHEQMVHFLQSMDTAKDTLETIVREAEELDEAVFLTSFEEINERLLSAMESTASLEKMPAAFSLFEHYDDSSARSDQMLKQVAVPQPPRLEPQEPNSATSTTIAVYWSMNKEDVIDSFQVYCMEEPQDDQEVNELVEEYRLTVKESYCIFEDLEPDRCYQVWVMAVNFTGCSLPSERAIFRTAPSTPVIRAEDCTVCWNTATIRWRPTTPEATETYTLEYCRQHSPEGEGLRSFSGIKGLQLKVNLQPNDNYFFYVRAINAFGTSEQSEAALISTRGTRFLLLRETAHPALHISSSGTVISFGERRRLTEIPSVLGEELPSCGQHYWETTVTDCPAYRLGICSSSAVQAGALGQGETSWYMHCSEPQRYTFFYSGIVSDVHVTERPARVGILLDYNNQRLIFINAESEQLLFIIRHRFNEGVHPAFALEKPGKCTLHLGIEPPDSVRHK
UniProt P04792: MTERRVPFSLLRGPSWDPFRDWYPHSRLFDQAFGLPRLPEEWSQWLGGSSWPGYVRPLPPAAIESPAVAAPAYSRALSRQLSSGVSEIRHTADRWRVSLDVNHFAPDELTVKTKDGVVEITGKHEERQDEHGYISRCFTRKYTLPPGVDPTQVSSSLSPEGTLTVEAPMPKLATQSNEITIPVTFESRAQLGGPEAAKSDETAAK
UniProt P20648: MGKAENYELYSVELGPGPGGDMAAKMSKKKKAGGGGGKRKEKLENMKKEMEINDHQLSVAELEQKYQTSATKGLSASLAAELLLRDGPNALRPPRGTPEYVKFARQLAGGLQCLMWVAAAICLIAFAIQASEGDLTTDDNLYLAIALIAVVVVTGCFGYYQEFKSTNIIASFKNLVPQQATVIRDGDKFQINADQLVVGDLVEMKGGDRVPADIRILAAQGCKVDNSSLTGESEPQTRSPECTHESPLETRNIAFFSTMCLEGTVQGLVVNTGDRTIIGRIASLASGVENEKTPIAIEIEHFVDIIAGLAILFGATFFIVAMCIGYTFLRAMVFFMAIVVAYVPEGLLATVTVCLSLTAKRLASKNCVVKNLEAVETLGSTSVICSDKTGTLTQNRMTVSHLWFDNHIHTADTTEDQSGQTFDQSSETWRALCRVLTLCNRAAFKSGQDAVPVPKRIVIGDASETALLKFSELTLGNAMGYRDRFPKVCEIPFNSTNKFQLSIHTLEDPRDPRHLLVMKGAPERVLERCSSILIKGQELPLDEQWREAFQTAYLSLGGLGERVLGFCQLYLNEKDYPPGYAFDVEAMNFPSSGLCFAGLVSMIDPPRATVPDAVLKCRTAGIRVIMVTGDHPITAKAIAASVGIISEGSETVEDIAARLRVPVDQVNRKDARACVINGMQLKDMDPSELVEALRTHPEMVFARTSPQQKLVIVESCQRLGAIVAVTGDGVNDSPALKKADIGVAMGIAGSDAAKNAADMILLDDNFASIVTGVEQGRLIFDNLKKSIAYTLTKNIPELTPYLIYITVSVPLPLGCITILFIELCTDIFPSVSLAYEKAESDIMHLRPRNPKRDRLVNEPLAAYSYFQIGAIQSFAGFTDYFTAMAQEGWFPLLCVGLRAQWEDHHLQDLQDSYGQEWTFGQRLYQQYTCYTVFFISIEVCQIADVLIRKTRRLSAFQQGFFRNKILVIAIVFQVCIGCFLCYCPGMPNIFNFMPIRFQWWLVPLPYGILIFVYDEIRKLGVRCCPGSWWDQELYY
UniProt P18754: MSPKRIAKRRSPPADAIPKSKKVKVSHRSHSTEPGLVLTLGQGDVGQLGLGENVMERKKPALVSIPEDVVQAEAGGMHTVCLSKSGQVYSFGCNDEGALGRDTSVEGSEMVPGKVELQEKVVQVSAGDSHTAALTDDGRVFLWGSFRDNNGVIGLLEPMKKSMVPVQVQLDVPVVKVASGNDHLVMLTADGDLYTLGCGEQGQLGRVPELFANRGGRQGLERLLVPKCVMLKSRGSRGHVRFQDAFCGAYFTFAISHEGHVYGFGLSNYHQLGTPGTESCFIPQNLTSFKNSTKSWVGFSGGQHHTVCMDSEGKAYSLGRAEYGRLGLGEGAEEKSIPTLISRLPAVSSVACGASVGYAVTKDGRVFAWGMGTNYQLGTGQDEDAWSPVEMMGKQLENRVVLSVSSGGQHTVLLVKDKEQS
UniProt P68104: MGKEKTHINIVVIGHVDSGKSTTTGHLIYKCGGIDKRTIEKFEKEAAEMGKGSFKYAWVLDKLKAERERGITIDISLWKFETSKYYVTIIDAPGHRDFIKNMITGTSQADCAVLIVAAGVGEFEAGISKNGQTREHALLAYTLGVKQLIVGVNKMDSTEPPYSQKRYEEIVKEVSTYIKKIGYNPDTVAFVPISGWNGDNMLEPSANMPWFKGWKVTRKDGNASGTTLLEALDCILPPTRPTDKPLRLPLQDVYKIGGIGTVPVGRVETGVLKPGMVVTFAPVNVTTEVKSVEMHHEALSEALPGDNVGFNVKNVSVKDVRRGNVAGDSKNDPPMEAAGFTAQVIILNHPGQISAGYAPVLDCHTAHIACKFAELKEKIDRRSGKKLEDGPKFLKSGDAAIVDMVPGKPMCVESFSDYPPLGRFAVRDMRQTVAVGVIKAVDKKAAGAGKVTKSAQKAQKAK
UniProt Q86UQ0: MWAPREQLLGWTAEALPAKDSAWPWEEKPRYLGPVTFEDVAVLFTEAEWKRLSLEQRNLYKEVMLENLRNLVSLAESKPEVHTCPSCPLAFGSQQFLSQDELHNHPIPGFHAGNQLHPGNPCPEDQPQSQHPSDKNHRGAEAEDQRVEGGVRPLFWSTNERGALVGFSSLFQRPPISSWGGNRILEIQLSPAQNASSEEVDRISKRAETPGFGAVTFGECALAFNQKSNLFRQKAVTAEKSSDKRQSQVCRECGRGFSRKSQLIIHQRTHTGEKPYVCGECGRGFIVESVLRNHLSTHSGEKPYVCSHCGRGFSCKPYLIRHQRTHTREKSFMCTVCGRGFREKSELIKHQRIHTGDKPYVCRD

The experiment deals with T1, Heme oxygenase 1 (recombinant FLAGHO-1) (human) (UniProt P09601).
T1 sequence: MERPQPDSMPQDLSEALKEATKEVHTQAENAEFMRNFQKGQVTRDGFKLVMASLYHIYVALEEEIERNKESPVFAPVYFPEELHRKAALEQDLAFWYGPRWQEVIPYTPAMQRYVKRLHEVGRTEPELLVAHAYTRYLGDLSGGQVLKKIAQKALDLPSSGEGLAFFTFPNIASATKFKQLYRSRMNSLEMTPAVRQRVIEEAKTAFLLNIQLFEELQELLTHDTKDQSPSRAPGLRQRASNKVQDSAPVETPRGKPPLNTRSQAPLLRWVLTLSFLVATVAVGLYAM
Kind of experiment: affinity purification with mass spectrometry; PC3 cells transiently transfected with FLAGHO-1 or empty FLAG vector and treated with H2O2 (200 uM); extract in 20 mM Tris, 150 mM NaCl, 5 mM MgCl2, 0.5% NP40, pH 7.5; Flag magnetic beads 2 h at 4 °C; eluted with 3XFLAG peptide; trypsin digest, LC-ESI MS/MS; only proteins differential against the empty FLAG vector were kept.

These are yes or no findings as the source states them, for the method shown. In cells and extracts the contact can be indirect. A yes stands for co-enrichment or nearness to the bait. Other partners may have been found. Where a sequence is shown, tags or fusion partners need not be part of it.

Consider “5′-Nucleotidase, cytosolic II (from UniProt P49902-1 1-561)”, for which the binding result is “binds”. Anexin 2 (from UniProt P07355 1-339): the binding entry is given as “binds”. On to “Cardiomyopathy-associated protein 5 (from UniProt Q8N3K9 1-4069)”, for which the binding result is given as “binds”.

As to “Chromobox homolog 1 (from UniProt P83916 1-185)”, the binding entry is given as “binds”. Turning to “Chromobox homolog 3 (from UniProt Q13185 1-183)”, the binding result is on record as “binds”. As to “Coiled-coil domain-containing protein 73 (from UniProt Q6ZRK6 1-1079)”, the binding entry is “binds”. Take “Cycle-like factor CLIF (from UniProt Q8WYA1-5)”: the binding result is listed as “binds”. As for “DNA topoisomerase 1 (from UniProt P11387 1-765)”, the binding entry is listed as “binds”. Regarding “Damage-specific DNA-binding protein 1, 127kDa (from UniProt Q16531 1-1140)”, the binding result was “binds”.

With Gelsolin (from UniProt P06396 28-782), the binding result is given as “binds”. Take “Heat shock 27 kDa protein (from UniProt P04792 1-205)”: the binding result is “binds”. Regarding “High mobility group AT-hook 1 (human (endogenous in PC3))”, the binding entry is on record as “binds”. On to “High mobility group protein HMG-I/HMG-Y isoform a (from UniProt P17096 1-107)”, for which the binding entry is “binds”. Turning to “Kinesin-like protein KIF23 (from UniProt Q02241-2)”, the binding result is reported as “binds”. “Mitochondrial import inner membrane translocase subunit (human (endogenous in PC3))”: the binding result is listed as “binds”.

For “Multiple epidermal growth factor-like domains protein 10 (from UniProt Q96KG7-1 26-1140)”, the binding result was “binds”. Under “Muskelin 1 (from UniProt Q9UL63-1 1-735)” stands “binds”. In the case of “Nucleophosmin 1 (from UniProt P06748 1-294)”, the binding result is reported as “binds”.

For “Palmdelphin, isoform CRA_a (from UniProt Q9NP74-2)”, the binding result is “binds”. “Potassium-transporting ATPase alpha chain 1 (from UniProt P20648 1-1035)”: the binding entry is “binds”. Take “Programmed cell death 5 short isoform (human (endogenous in PC3))”: the binding entry is recorded as “binds”.

“RNA polymerase II transcription factor SIII subunit A3-like-2 (human (endogenous in PC3))”: the binding result was “binds”. Under “Regulator of chromosome condensation (from UniProt P18754 1-421)” stands “binds”; under “Replication protein A 70 kDa DNA-binding subunit (from UniProt P27694 1-616)”, “binds”.

For “Ribosomal protein SA pseudogene 9 (human (endogenous in PC3))”, the binding entry was “binds”. Turning to “Sequestosome 1 (from UniProt Q13501 1-440)”, the binding result is “binds”. For the molecule “Signal-induced proliferation-associated 1-like protein 1 (from UniProt O43166 1-1804)”, the binding result is given as “binds”.

As for “Translation elongation factor 1-alpha (from UniProt P68104 1-462)”, the binding result was “binds”. With “Translation initiation factor eIF3 p40 subunit (from UniProt O15372 1-352)” the entry was “binds”. As for “Tripartite motif-containing 28 (from UniProt Q13263 1-835)”, the binding result is “binds”. For the molecule “Zinc-finger CCCH-type, antiviral 1 (from UniProt Q7Z2W4 1-902)”, the binding entry was “binds”.

Consider “Zinc-finger protein 589 (from UniProt Q86UQ0 1-364)”, for which the binding entry was “binds”.

B1: Junctional sarcoplasmic reticulum protein 1 (protein, UniProt Q96MG2 1-331)
chain: MSMTTRAWEELDGGLGSCQALEDHSALAETQEDRASATPRLADSGSVPHDSQVAEGPSVDTRPKKMEKEPAARGTPGTGKERLKAGASPRSVPARKKAQTAPPLQPPPPPPALSEELPWGDLSLNKCLVLASLVALLGSAFQLCRDAVPGEAALQARVPEPWVPPSSAPREPSSPLPKFEAQAPPSAPPAPRAEAEVRPKIPGSREAAENDEEEPGEATGEAVREDRVTLADRGPKERPRREGKPRKEKPRKEERPKKERPRKEERPRAAREPREALPQRWESREGGHRPWARDSRDAEPRKKQAWVSPRRPDEEQRPGSRQKLRAGKGRD
With B1, the binding result is “binds”.

B2: Alpha-2-HS-glycoprotein (protein, UniProt P02765 19-367)
chain: APHGPGLIYRQPNCDDPETEEAALVAIDYINQNLPWGYKHTLNQIDEVKVWPQQPSGELFEIEIDTLETTCHVLDPTPVARCSVRQLKEHAVEGDCDFQLLKLDGKFSVVYAKCDSSPDSAEDVRKVCQDCPLLAPLNDTRVVHAAKAALAAFNAQNNGSNFQLEEISRAQLVPLPPSTYVEFTVSGTDCVAKEATEAAKCNLLAEKQYGFCKATLSEKLGGAEVAVTCMVFQTQPVSSQPQPEGANEAVPTPVVDPDAPPSPPLGAPGLPPAGSPPDSHVLLAAPPGHQLHRAHYDLRHTFMGVVSLGSPSGEVSHPRKTRTVVQPSVGAAAGPVVPPCPGRIRHFKV
B2: the binding result is given as “binds”.

B3: FtsJ3 protein (protein, UniProt Q8IY81 1-847)
chain: MGKKGKVGKSRRDKFYHLAKETGYRSRSAFKLIQLNRRFQFLQKARALLDLCAAPGGWLQVAAKFMPVSSLIVGVDLVPIKPLPNVVTLQQDITTERCRQALRKELKTWKVDVVLNDGAPNVGASWVHDAYSQAHLTLMALRLACDFLARGGSFITKVFRSRDYQPLLWIFQQLFRRVQATKPQASRHESAEIFVVCQGFLAPDKVDSKFFDPKFAFKEVEVQAKTVTELVTKKKPKAEGYAEGDLTLYHRTSVTDFLRAANPVDFLSKASEIMVDDEELAQHPATTEDIRVCCQDIRVLGRKELRSLLNWRTKLRRYVAKKLKEQAKALDISLSSGEEDEGDEEDSTAGTTKQPSKEEEEEEEEEQLNQTLAEMKAQEVAELKRKKKKLLREQRKQRERVELKMDLPGVSIADEGETGMFSLSTIRGHQLLEEVTQGDMSAADTFLSDLPRDDIYVSDVEDDGDDTSLDSDLDPEELAGVRGHQGLRDQKRMRLTEVQDDKEEEEEENPLLVPLEEKAVLQEEQANLWFSKGSFAGIEDDADEALEISQAQLLFENRRKGRQQQQKQQLPQTPPSCLKTEIMSPLYQDEAPKGTEASSGTEAATGLEGEEKDGISDSDSSTSSEEEESWEPLRGKKRSRGPKSDDDGFEIVPIEDPAKHRILDPEGLALGAVIASSKKAKRDLIDNSFNRYTFNEDEGELPEWFVQEEKQHRIRQLPVGKKEVEHYRKRWREINARPIKKVAEAKARKKRRMLKRLEQTRKKAEAVVNTVDISEREKVAQLRSLYKKAGLGKEKRHVTYVVAKKGVGRKVRRPAGVRGHFKVVDSRMKKDQRAQQRKEQKKKHKRK
B3: the binding result was “binds”.
